Source: patent publication US7635491B2, “Method for administering selenium for treating patients suffering from systemic inflammatory response syndrome (SIRS), and composition for implementing the treatment” (priority 1998, dated 2009)
At least one structure is not confirmed: it was looked up by name or label, or the drawing left a doubt.

Tested on: severe systemic inflammatory response syndrome (SIRS)
Experiment: Treatment of intensive-care patients with severe SIRS / septic shock by continuous administration of sodium selenite (case reports)
Format: in vivo, human
Conditions: for effect on shock condition: 4 mg atomic selenium equivalent over first 24 hours
Experimental: A patient, 75 kg, chronic alcoholic with no history of icteroascitic, hemorrhagic or encephalopathic compensation, was admitted to postoperative intensive care with generalized purulent peritonitis from colonic perforation during an attack of diverticular sigmoiditis.
His initial hemodynamics were maintained by perfusion. […] There was a moderate renal insufficiency. An adapted empirical antibiotic therapy was begun, and modified after 48 hours in view of the antiobiograms. At 24 hours severity indexes were IGS II 29, APACHE II 17 and SOFA score was 5. One day after the operation, the situation worsened rapidly with onset of a state of shock with lactic acidosis 5 μmol/l requiring administration of dopamine then rapidly noradrenaline up to 4 mg/h (0.9 μg/kg/min). There was a deterioration of respiratory state requiring increase of the FiO2 because of the onset of an acute adult respiratory distress syndrome (ARDS). As soon as the necessity of noradrenaline administration was recognized, a treatment with sodium selenite by continuous administration was begun at a dose of 4 mg of atomic selenium equivalent over the first 24 hours, followed by continuous administration of sodium selenite at a dose of 1 mg of atomic selenium equivalent for 10 days.
A patient, depressive, anorexic, 51 kg and 1.75 m tall, was admitted on a tentative diagnosis of drug-induced suicide with ingestion of a large amount of analgesics and sedatives. The diagnosis was rapidly changed to generalized purulent peritonitis from a perforated gastric ulcer. They were transferred to postoperative intensive care. There was also a shock condition requiring perfusion and introduction of catechol amines as noradrenaline and dolbutamine; lactic acidosis at 6 μmol/l. Antibacterial and antifungal antibiotic therapy was performed. Diuresis was maintained under diuretics. One hour after the start of noradrenaline administration, a treatment with sodium selenite by continuous administration was begun at a dose of 4 mg of atomic selenium equivalent over the first 24 hours, followed by continuous administration of sodium selenite at a dose of 1 mg of atomic selenium equivalent for 10 days. At 24 hours the severity indexes were IGS II 44, APACHE II 35. The SOFA score was 8.
A patient, presenting major alcohol-tobacco addiction (more than 1 liter of wine per day, 2 packets of cigarettes per day), chronic BPCO respiratory insufficiency, stage 2 arteritis of the lower limbs and deterioration in general health for several months with a productive cough, was transferred to intensive care after a short stay in general medicine. At admission there was a respiratory distress requiring emergency intubation-ventilation. Blood gases confirmed major respiratory acidosis. The patient was feverish. There was a hyperleucocytosis of 24 000 leucocytes of which 88% were polymorphonuclear cells. Blood pressure was stable under perfusion, however there were blotches on the knees. There were no coagulation problems nor renal insufficiency. At 24 hours IGS II was 41, APACHE II 26, and SOFA score 8. Lung samples taken by protected telescopic brush and brochoalveolar washing confirmed the diagnosis of community-acquired pneumonia: 47% of cells infected, Haemophilus influenza β-lactamase negative and wild-type streptococcal anginosis.
The immediate development was marked by a rapid deterioration of respiratory state with necessity of ventilation at FiO2 100%, PEP 8. In addition, very substantial perfusion was necessary with measurement of pressure by right catheterization. Dopamine had to be administered at 10 μg/kg/min. After 8 hours dopamine administration, a treatment with sodium selenite by continuous administration was begun at a dose of 4 mg of atomic selenium equivalent over the first 24 hours, followed by continuous administration of sodium selenite at a dose of 1 mg of atomic selenium equivalent for 10 days. […]

[1] = Example 1, 4 mg Se first 24 hours, then 1 mg for 10 days

## O=[Se](O)O [sodium selenite, Sodium selenite [Na2O3Se]]
Example 1
  postoperative nosocomial infection: No postoperative nosocomial infection was observed
Example 1: patient, purulent peritonitis, shock, then 1 mg for 10 days, continuous administration
  effect on shock condition: limiting the extent of this vasoplegic shock condition, thus avoiding early death
[1]
  effect on visceral failure: limiting the extent of visceral failure
  lactic acidosis course: regressed rapidly
  time to withdrawal of noradrenaline: three
Example 2
  visceral failures: no significant visceral failures
Example 3
  day of extubation: sixth
  day of withdrawal of catechol amines: fifth
Example 3: patient, community-acquired pneumonia, then 1 mg for 10 days
  effect on shock condition: Progress towards a fatal shock condition was thus avoided
Example 3, as from the second day
  course of respiratory and hemodynamic situation: progressive improvement of the situation was observed, both respiratory and hemodynamic
